Measurements from article PMC11192437, “Molecular and structural basis of oligopeptide recognition by the Ami transporter system in pneumococci” (PLOS Pathogens, 2024).
These are yes or no findings as the source states them, for the method shown. Some binding calls cover weakened binding; strength is not graded here.

Protein sequences, listed by entry. Tags and fused reporters are not part of them. Residues count along the entry.
UniProt P0A4G0, residues 26-652: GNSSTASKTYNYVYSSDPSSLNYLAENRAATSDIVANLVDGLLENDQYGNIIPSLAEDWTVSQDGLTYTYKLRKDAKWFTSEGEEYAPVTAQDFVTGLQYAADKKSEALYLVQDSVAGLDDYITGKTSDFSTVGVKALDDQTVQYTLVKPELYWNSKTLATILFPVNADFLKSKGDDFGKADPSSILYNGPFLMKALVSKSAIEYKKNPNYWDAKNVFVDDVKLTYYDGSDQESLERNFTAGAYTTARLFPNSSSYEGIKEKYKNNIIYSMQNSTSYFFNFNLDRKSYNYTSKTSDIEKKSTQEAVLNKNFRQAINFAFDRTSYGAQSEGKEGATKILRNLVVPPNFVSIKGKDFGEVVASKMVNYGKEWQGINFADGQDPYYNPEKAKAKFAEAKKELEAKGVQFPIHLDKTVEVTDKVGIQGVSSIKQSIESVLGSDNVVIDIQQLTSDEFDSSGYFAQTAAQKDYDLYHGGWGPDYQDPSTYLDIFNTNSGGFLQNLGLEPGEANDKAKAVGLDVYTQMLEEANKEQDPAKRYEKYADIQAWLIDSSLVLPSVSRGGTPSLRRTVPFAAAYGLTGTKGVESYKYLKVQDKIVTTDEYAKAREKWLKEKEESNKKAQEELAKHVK

Molecular target: AliB (residues 26–652), oligopeptide-binding lipoprotein of the Ami system, without the lipobox segment (Streptococcus pneumoniae) (UniProt P0A4G0)
Assay: crystal structure; AliB incubated with an excess of synthetic peptide 2, 3 or 4 and co-crystallised; 0.1 M sodium acetate, 8% 2-propanol, 21% PEG4000; 2.29, 1.66 and 1.49 Å; closed conformation; both purified

## AIQSEKARKHN [Peptide 2 (…)]
  binding: binds
